This test addresses T1, Kibra (Kib) (Drosophila) (UniProt Q9VFG8).
T1 sequence: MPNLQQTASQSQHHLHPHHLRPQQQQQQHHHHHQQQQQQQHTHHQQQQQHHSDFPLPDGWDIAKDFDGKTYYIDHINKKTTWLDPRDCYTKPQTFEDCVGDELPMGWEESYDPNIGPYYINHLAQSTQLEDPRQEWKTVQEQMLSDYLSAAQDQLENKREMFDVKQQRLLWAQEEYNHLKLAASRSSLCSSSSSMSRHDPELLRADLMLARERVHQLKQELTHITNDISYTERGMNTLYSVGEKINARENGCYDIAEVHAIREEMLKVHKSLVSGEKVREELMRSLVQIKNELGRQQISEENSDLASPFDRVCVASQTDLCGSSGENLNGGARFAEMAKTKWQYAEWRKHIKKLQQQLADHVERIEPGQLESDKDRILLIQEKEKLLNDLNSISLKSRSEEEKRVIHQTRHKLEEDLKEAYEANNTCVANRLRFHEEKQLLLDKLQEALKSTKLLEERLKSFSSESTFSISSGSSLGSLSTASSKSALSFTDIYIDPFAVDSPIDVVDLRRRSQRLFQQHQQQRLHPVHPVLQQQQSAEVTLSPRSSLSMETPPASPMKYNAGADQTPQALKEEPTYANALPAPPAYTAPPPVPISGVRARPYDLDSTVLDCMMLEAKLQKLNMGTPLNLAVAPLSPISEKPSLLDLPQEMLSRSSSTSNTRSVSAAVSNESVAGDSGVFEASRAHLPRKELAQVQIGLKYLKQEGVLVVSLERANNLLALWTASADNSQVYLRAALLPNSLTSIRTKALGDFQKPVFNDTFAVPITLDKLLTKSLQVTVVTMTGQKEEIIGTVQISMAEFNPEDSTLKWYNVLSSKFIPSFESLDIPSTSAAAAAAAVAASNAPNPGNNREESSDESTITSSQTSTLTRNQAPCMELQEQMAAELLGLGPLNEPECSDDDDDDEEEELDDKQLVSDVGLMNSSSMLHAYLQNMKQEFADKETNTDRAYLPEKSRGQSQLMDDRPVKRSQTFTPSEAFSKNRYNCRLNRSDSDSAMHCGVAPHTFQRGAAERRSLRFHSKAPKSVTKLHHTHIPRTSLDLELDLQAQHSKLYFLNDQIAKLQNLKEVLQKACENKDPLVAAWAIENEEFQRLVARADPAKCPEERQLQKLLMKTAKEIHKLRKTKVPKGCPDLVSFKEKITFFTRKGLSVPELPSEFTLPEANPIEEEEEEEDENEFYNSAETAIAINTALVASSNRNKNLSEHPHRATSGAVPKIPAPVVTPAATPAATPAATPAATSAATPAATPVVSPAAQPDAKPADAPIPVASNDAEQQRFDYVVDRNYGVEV
Put plainly: co-IP.

These are yes or no findings as the source states them, for the method shown. Binding seen in cells or lysates may run through a third protein. Binding can be weak; no strength is given.

For the substance Well-rounded (Wrd) (Drosophila), the binding entry is “binds”.

For the origin of these results see publication doi:10.1101/2024.11.14.623552.
